Consider one substance from patent US20230374087A1, “METHOD TO IMPROVE PROTEIN QUALITY CONTROL” (The Johns Hopkins University, priority 2020, published 2023).

By UniProt entry, the sequences of proteins in these tests, tags left out. Where a name states a change or a piece, a line headed by the entry shows the natural chain unless it says otherwise. Residues count along the entry.
UniProt P63017, residues 2-646: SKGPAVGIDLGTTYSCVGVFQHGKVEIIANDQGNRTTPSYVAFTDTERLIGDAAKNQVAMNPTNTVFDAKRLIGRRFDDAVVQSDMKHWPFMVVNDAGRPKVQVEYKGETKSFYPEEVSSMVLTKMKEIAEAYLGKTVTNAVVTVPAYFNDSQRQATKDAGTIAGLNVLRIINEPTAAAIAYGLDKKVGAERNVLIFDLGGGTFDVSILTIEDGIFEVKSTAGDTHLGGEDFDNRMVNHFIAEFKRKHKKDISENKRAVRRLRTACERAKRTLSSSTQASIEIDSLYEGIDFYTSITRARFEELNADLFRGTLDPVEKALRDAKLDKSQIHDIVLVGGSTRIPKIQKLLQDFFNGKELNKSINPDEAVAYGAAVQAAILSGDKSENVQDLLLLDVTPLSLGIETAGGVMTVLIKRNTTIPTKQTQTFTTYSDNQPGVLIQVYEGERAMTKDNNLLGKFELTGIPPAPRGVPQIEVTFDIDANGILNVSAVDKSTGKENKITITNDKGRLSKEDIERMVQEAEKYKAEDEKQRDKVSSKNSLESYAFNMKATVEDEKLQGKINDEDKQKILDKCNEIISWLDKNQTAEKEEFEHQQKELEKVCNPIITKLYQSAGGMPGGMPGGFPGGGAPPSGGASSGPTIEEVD
UniProt Q9WUD1: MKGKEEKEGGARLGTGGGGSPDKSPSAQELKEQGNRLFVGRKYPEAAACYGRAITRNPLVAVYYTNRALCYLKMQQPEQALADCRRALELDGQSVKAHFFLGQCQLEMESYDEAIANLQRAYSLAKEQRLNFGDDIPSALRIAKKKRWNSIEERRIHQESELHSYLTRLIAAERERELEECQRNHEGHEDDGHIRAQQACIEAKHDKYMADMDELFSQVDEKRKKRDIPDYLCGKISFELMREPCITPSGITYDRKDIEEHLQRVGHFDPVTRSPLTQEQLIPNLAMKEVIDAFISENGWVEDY

These are yes or no findings as the source states them, for the method shown. Binding seen in cells or lysates may run through a third protein. Some entries that bind do so weakly or less than the wild type.

In experiment [1] the target is Hsc70, endogenous in mouse myocardium (mouse) (UniProt P63017). In words: co-immunoprecipitation from mouse myocardium (FIG. 5C).
For experiment [2] the target is unchanged. In words: co-immunoprecipitation from mouse myocardium.

Turning to “mouse CHIP, endogenous in myocardium (from UniProt Q9WUD1 1-304)”, the binding entry in experiment [1] and in experiment [2] was “binds” throughout.
